In PubChem BioAssay AID1347076 (National Center for Advancing Translational Sciences (NCATS), 2019):
About 13,000 (3.2%) of roughly 400,000 compounds were called active. Inconclusive results, whose numbers are uncertain, are shown with a selection of clear calls. Calls follow the shape of the dose curve; as a rule, active = well fitted cell-killing curve with a large enough effect; inconclusive = small, poorly fitted or top-dose-only effect, or effect the other way; inactive = flat fitted curve, though single readings scatter. Where the call is inconclusive, the potency comes from a doubtful curve fit.

Assay: qHTS assay for MDR1-selective chemotherapeutics: Primary screen using the drug-selected MDR subline cells KB-V1; also: nearly all actives have a fitted effect of over 60% in size
Conditions: KB-V1 MDR cells viability, CellTiter-Glo, 72 h; series mostly up to 46.1 µM
In short: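 Cytotoxicity via CellTiter-Glo luminescence after 72 h compound exposure at 37 degrees C. Cells: drug-selected KB-V1 line, DMEM phenol-red free plus 10% FBS. Compounds tested at multiple concentrations; normalized data fitted to concentration-effect curves.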
Potency is read from the fitted curve at half-maximal effect.

SMILES	Potency
CC(=O)c1c(C)[nH]c(C(=O)OCC(=O)Nc2ccc(Cl)cc2[N+](=O)[O-])c1C	inconclusive: 5.17 µM [cytotoxic, full curve]
COC(=O)c1sc(NC(=O)c2cccc([N+](=O)[O-])c2)c(C(N)=O)c1C	inconclusive: 25.9 µM [cytotoxic, partial curve, poor fit]
CCOC(=O)c1cn(Cc2c(C)c(C)c(C)c(C)c2C)nn1	inconclusive: 14.6 µM [cytotoxic, partial curve]
C=CCn1c(N/N=C/c2ccc(O)cc2)nc2ccccc2c1=O	inconclusive: 23.1 µM [cytotoxic, single point]
CC(C)C1C(=O)N(Cc2cn(CC3CCCCC3)nn2)CCS(=O)(=O)N1Cc1ccc(-c2ccncc2)cc1 (stereo not drawn)	inactive
COc1ccc2cc3cc(C(=O)N4CCN(Cc5ccc6c(c5)OCO6)CC4)oc3nc2c1	inconclusive: 29.1 µM [cytotoxic, single point]
CCOC(=O)c1ccc(NS(=O)(=O)c2ccc(SC)cc2)cc1	active: 23.1 µM
Cc1ccc(CCNC(=O)C2CCC(=O)N(CC3CCCCC3)C2)cc1 (stereo not drawn)	inconclusive: 14.6 µM [cytotoxic, partial curve]
O=C(CN1C(=O)COc2ccc(S(=O)(=O)N3CCCC3)cc21)N1CCN(c2cccc(C(F)(F)F)c2)CC1	inconclusive: 5.17 µM [cytotoxic, full curve]
O=C(Nc1ccc(OCC(F)(F)C(F)F)c(C(F)(F)F)c1)c1ccc(Cl)cc1	inconclusive: 29.1 µM [cytotoxic, single point]
O=C(NCC1COc2ccccc2O1)c1cc2ccccc2o1 (stereo not drawn)	inactive
O=C(/C=C/c1ccco1)Nc1nc(-c2ccc(F)c(F)c2)cs1	inconclusive: 5.17 µM [cytotoxic, partial curve]
CCOc1ccccc1CNC(=O)CCc1c(C)nn(-c2ccc(N3CCOCC3)nn2)c1C	inactive
O=S(=O)(c1ccccc1)c1nc(-c2cccs2)oc1NCCCn1ccnc1	inconclusive: 29.1 µM [cytotoxic, partial curve, poor fit]
CCN1/C(=C/c2ccc3ccccc3[n+]2CC)C=Cc2ccccc21	inconclusive: 14.6 µM [cytotoxic, single point]
O=S(=O)(NCc1cc(-c2ccccc2Cl)no1)c1ccc(Cl)cc1	inconclusive: 29.1 µM [cytotoxic, single point]
O=C(C[C@H]1CC[C@@H]2[C@H](COC[C@@H](O)CN2Cc2cccc(F)c2)O1)NCC1CCCCC1	inconclusive: 14.6 µM [cytotoxic, single point]
COc1ccc(C(=O)c2c(N)sc3c2CCN(C(=O)OC(C)(C)C)C3)cc1	inconclusive: 25.9 µM [cytotoxic, single point]
COc1ccc(S(=O)(=O)c2c(SC)nn(CC(=O)Nc3cccc(C)c3C)c2N)cc1	inactive
CCCn1c(SCc2ccccn2)nc2c1c(=O)n(C)c(=O)n2C	inconclusive: 18.4 µM [cytotoxic, partial curve]
COc1ccc(CNC(=O)Cn2nc(N3CCN(c4ccccc4)CC3)ccc2=O)c(OC)c1	inactive
Clc1cccc(CNc2ccn3nc(-c4ccc(OCCN5CCOCC5)cc4)cc3n2)c1	inconclusive: 25.9 µM [cytotoxic, single point]
CCCCCC(=O)N1C[C@H](O)[C@@H](n2cc(C3CC3)nn2)C[C@@H]1c1ccc(OC)cc1	inactive

SMILES	Potency
O=C(CNc1cccc(S(=O)(=O)N2CCOCC2)c1)Nc1cccc(Br)c1	inconclusive: 29.1 µM [cytotoxic, single point]
O=C(CSc1nnnn1Cc1ccccc1)NCC(=O)c1ccccc1	inconclusive: 20.6 µM [cytotoxic, partial curve, poor fit]
Cn1c(Cn2c(=O)sc3ccccc32)nnc1SCC(=O)NC1CCCCC1	inconclusive: 16.4 µM [rising, partial curve, poor fit]
Cn1cc(/C=C/c2ccc3ccccc3n2)c2ccccc21	inactive
O=C1c2ccccc2C(=O)N1CCCCN(C(=O)c1cccc([N+](=O)[O-])c1)c1ccc(Cl)cc1	inconclusive: 16.4 µM [cytotoxic, partial curve, poor fit]
O=C(Nc1ccc(Cl)cc1Cl)Nn1cnnc1	inconclusive: 0.731 µM [rising, full curve]
Cc1cc(C)c(S(=O)(=O)Nc2ccncc2)cc1C	inactive
CCC(C)Nc1oc(-c2ccc(COc3ccc(Cl)cc3)o2)nc1C#N (stereo not drawn)	inconclusive: 29.1 µM [cytotoxic, single point]
CN(C)S(=O)(=O)c1ccc(Cl)c(NC(=O)CN2CCN(Cc3ccc4c(c3)OCO4)CC2)c1	active: 14.6 µM
COc1ccc(CCNC(=O)c2cc(C(=O)c3cc(C)ccc3O)cn(CCc3ccc(OC)cc3)c2=O)cc1	inconclusive: 20.6 µM [cytotoxic, partial curve, poor fit]
CCNc1cc(S(=O)(=O)C(F)(F)F)ccc1N	active: 23.1 µM
COc1ccc(/C=N/NC(=O)c2[nH]c3ccc(Br)cc3c2-c2ccccc2)c(C(=O)O)c1OC	inactive
CSc1ncnc2c1ncn2CCCNCc1ccc(C)o1	inactive
O=C1CNC(=S)N1CCc1ccccc1Cl	inconclusive: 0.517 µM [rising, partial curve, poor fit]
CCc1ccc(-c2cc(C(=O)NCc3ccccn3)c3ccccc3n2)cc1	inconclusive: 7.31 µM [cytotoxic, single point]
CCC(=O)N1CCN=C1SCc1c(F)cccc1Cl	inconclusive: 2.06 µM [rising, single point]
Cc1cccc(OCC(O)Cn2c(=N)n(CCN3CCCCC3)c3ccccc32)c1 (stereo not drawn)	inconclusive: 16.4 µM [cytotoxic, partial curve]
COc1ccccc1C(=O)Nc1ccc2c(c1)nc(CN1CCN(C(C)=O)CC1)n2C	inconclusive: 10.3 µM [rising, partial curve, poor fit]
COc1ccc(C)cc1NC(=O)CNC(C)C(=O)Nc1cc(Cl)ccc1Cl (stereo not drawn)	inconclusive: 5.17 µM [cytotoxic, partial curve]
CC(=O)c1ccc(OCC(O)CN(C)CCOc2ccc(Br)cc2)cc1 (stereo not drawn)	inconclusive: 5.8 µM [cytotoxic, full curve]
COc1ccc(CCNc2oc(-c3cccc4ccccc34)nc2P(=O)(OC)OC)cc1OC	active: 11.6 µM
Cc1ccccc1C(=O)N=c1ccn(-c2nc3ccccc3nc2NS(=O)(=O)c2ccc(F)cc2)cc1	inconclusive: 29.1 µM [rising, single point]
CNC(=O)C1CCN(S(=O)(=O)c2c(C)noc2/C=C/N(C)C)CC1	inconclusive: 29.1 µM [rising, single point]

An excerpt from above in order of SMILES length, smallest number first.
SMILES	Potency
O=C1CNC(=S)N1CCc1ccccc1Cl	inconclusive: 0.517 µM [rising, partial curve, poor fit]
CSc1ncnc2c1ncn2CCCNCc1ccc(C)o1	inactive
Cc1cc(C)c(S(=O)(=O)Nc2ccncc2)cc1C	inactive
O=C(NCC1COc2ccccc2O1)c1cc2ccccc2o1 (stereo not drawn)	inactive
CCOC(=O)c1cn(Cc2c(C)c(C)c(C)c(C)c2C)nn1	inconclusive: 14.6 µM [cytotoxic, partial curve]
CCN1/C(=C/c2ccc3ccccc3[n+]2CC)C=Cc2ccccc21	inconclusive: 14.6 µM [cytotoxic, single point]
CCC(C)Nc1oc(-c2ccc(COc3ccc(Cl)cc3)o2)nc1C#N (stereo not drawn)	inconclusive: 29.1 µM [cytotoxic, single point]
Cn1c(Cn2c(=O)sc3ccccc32)nnc1SCC(=O)NC1CCCCC1	inconclusive: 16.4 µM [rising, partial curve, poor fit]
O=S(=O)(c1ccccc1)c1nc(-c2cccs2)oc1NCCCn1ccnc1	inconclusive: 29.1 µM [cytotoxic, partial curve, poor fit]
CNC(=O)C1CCN(S(=O)(=O)c2c(C)noc2/C=C/N(C)C)CC1	inconclusive: 29.1 µM [rising, single point]
O=C(CNc1cccc(S(=O)(=O)N2CCOCC2)c1)Nc1cccc(Br)c1	inconclusive: 29.1 µM [cytotoxic, single point]
COc1ccc(C(=O)c2c(N)sc3c2CCN(C(=O)OC(C)(C)C)C3)cc1	inconclusive: 25.9 µM [cytotoxic, single point]
Clc1cccc(CNc2ccn3nc(-c4ccc(OCCN5CCOCC5)cc4)cc3n2)c1	inconclusive: 25.9 µM [cytotoxic, single point]
CCOc1ccccc1CNC(=O)CCc1c(C)nn(-c2ccc(N3CCOCC3)nn2)c1C	inactive
COC(=O)c1sc(NC(=O)c2cccc([N+](=O)[O-])c2)c(C(N)=O)c1C	inconclusive: 25.9 µM [cytotoxic, partial curve, poor fit]
COc1ccc(S(=O)(=O)c2c(SC)nn(CC(=O)Nc3cccc(C)c3C)c2N)cc1	inactive
CCCCCC(=O)N1C[C@H](O)[C@@H](n2cc(C3CC3)nn2)C[C@@H]1c1ccc(OC)cc1	inactive
COc1ccc(CCNC(=O)c2cc(C(=O)c3cc(C)ccc3O)cn(CCc3ccc(OC)cc3)c2=O)cc1	inconclusive: 20.6 µM [cytotoxic, partial curve, poor fit]
O=C(C[C@H]1CC[C@@H]2[C@H](COC[C@@H](O)CN2Cc2cccc(F)c2)O1)NCC1CCCCC1	inconclusive: 14.6 µM [cytotoxic, single point]
O=C(CN1C(=O)COc2ccc(S(=O)(=O)N3CCCC3)cc21)N1CCN(c2cccc(C(F)(F)F)c2)CC1	inconclusive: 5.17 µM [cytotoxic, full curve]

The list continues:

SMILES	Potency
Nc1c2c(nc3sc4c(c13)CCCC4)CCCCCC2	inactive
O=C(Nc1ccccc1)c1nc(S(=O)(=O)Cc2ccccc2F)ncc1Cl	inactive
CC(NC(=O)c1cc(F)c(F)cc1Cl)C1CC2CCC1C2 (stereo not drawn)	inactive
CC(=O)N(C)c1ccc(C=C2C=Cc3ccccc32)cc1	inconclusive: 29.1 µM [cytotoxic, single point]
Cc1ccc(OCc2ccc(-c3ccccc3)cc2)c([N+](=O)[O-])n1	inconclusive: 29.1 µM [cytotoxic, single point]
COc1ccc(CN2CCn3ncc(C(=O)Nc4cccc(C)c4)c3C2=O)cc1	inconclusive: 7.31 µM [cytotoxic, partial curve, poor fit]
CNC(=O)COC(=O)c1cc2c(C)nn(-c3ccc(F)cc3)c2s1	inconclusive: 23.1 µM [cytotoxic, partial curve, poor fit]
COC(C[C@@H](O)CC(=O)[C@H](C)OCc1ccccc1)OC	inconclusive: 29.1 µM [rising, single point]
O=C1CC(NS(=O)(=O)c2cc(F)ccc2F)CN1c1ccc2c(c1)OCCO2 (stereo not drawn)	inactive
O=[N+]([O-])c1cccnc1N1CCC(c2cc(-c3cccc(C(F)(F)F)c3)n[nH]2)CC1	inconclusive: 29.1 µM [cytotoxic, single point]
O=C(Nc1ccc(Cl)cc1)C1Cc2c(-c3ccc(Cl)cc3)ccnc2O1 (stereo not drawn)	inactive
Cc1ccc(Nc2nc(N)nc(CN3CCN(c4ccccc4)CC3)n2)cc1Cl	active: 16.4 µM
CCN1C(c2ccccc2)=C(c2ccccc2)S/C1=C/C=C1\SC(=S)N(C)C1=O	inconclusive: 29.1 µM [cytotoxic, partial curve, poor fit]
Cc1ccc(CSc2nnc(-c3ccccn3)n2Cc2cccs2)cc1	inconclusive: 29.1 µM [cytotoxic, single point]
Cc1nnc(SCC2=C(C(=O)O)N3C(=O)C(NC(=O)Cn4nc(C)c(Cl)c4C)C3SC2)s1 (stereo not drawn)	inconclusive: 29.1 µM [rising, single point]
CNc1ccc2ncc(-c3ccc(OC)c(OC)c3)n2n1	inactive
COc1ccc(NC(=S)N2CCNC(=O)C2CC(=O)Nc2cccc(Cl)c2C)cc1 (stereo not drawn)	inactive
COc1c([N+](=O)[O-])ccc(N)c1N	inactive
CCNC(=O)C1CCN(c2nnc(C)c3c(C)n(-c4ccc(OC)cc4)nc23)CC1	inconclusive: 4.11 µM [rising, full curve]
COC(=O)c1ccc(C(=O)OC)c(NC(=S)N2CCN(C)CC2)c1	inactive
CC(=O)NC(c1cccs1)c1cc(F)c2cccnc2c1O (stereo not drawn)	inactive
O=C(c1ccc(-c2ccc(Cl)cc2)o1)N1CCN(c2ccc([N+](=O)[O-])cc2Cl)CC1	inactive
